Our source for the binding values is article PMC5070881.

For assay [1], the target named is T1, TBSV p33 replication protein (split ubiquitin bait) (Tomato bushy stunt virus) (UniProt P15962).
T1 sequence: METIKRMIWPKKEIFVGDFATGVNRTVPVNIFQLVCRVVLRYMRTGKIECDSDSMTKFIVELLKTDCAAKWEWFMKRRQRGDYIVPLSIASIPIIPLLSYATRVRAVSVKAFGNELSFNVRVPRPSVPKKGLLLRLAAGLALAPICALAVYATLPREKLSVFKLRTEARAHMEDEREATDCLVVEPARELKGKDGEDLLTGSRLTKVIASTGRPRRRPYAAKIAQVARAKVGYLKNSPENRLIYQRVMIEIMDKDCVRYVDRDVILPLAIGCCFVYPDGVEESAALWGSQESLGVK
Put plainly: two-hybrid; split ubiquitin membrane yeast two-hybrid (MYTH) in wt (NMY51) yeast; bait p33 or p36 co-expressed with prey Vps21p forms; growth read-out.

Assay [2] has as its target T2, TBSV p33-cYFP (Tomato bushy stunt virus) (UniProt P15962).
T2 sequence: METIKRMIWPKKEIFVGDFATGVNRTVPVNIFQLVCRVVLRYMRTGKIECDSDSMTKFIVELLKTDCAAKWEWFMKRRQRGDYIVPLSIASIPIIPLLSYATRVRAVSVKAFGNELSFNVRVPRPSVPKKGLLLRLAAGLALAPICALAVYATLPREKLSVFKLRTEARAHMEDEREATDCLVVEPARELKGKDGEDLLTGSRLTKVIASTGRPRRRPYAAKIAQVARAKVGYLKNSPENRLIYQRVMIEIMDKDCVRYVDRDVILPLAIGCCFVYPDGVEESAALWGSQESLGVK
The experiment in a line: split reporter; BiFC in N. benthamiana leaves; nYFP-AtRab5B agro-infiltrated with p33-cYFP or p36-cYFP (OD600 0.4 each), confocal microscopy 2 d after agro-infiltration, GFP channel.

No constants are given. Whether binding was seen depends on the method and setting. For some of these results: Binding seen in cells or lysates may run through a third protein. Some binding calls cover weakened binding; strength is not graded here. For some of these results: Where a sequence is shown, tags or fusion partners need not be part of it.

With “Vps21S21L (split ubiquitin prey) (from UniProt P36017 1-210)”, the binding result in assay [1] was “binds”.

B1: Vps21Q66L (split ubiquitin prey) (protein, UniProt P36017 1-210)
chain: MNTSVTSIKLVLLGEAAVGKSSIVLRFVSNDFAENKEPTIGAAFLTQRVTINEHTVKFEIWDTAGLERFASLAPMYYRNAQAALVVYDVTKPQSFIKARHWVKELHEQASKDIIIALVGNKIDMLQEGGERKVAREEGEKLAEEKGLLFFETSAKTGENVNDVFLGIGEKIPLKTAEEQNSASNERESNNQRVDLNAANDGTSANSACSC
On to B1, for which the binding entry in assay [1] is on record as “binds”.

B2: Vps21p, wild type (split ubiquitin prey) (protein, UniProt P36017 1-210)
chain: MNTSVTSIKLVLLGEAAVGKSSIVLRFVSNDFAENKEPTIGAAFLTQRVTINEHTVKFEIWDTAGQERFASLAPMYYRNAQAALVVYDVTKPQSFIKARHWVKELHEQASKDIIIALVGNKIDMLQEGGERKVAREEGEKLAEEKGLLFFETSAKTGENVNDVFLGIGEKIPLKTAEEQNSASNERESNNQRVDLNAANDGTSANSACSC
With B2, the binding result in assay [1] is “binds”.

B3: nYFP-AtRab5B (protein, UniProt Q9SN68 1-200)
chain: MAAAGNKSINAKLVLLGDVGAGKSSLVLRFVKDQFVEFQESTIGAAFFSQTLAVNDATVKFEIWDTAGQERYHSLAPMYYRGAAAAIIVFDVTNQASFERAKKWVQELQAQGNPNMVMALAGNKSDLLDARKVTAEDAQTYAQENGLFFMETSAKTATNVKEIFYEIARRLPRVQPTENPTGMVLPDRAMDRAVSSSCCA
With B3, in assay [2], the binding result was “binds”.
